# From patent publication US11826364B2, “Treatment for epilepsy” (Katholieke Universiteit Leuven, priority 2017, dated 2023)
# At least one structure is not confirmed: it was looked up by name or label, or the drawing left a doubt.
# Key:
# zebrafish larvae = assay: Zebrafish pentylenetetrazole (PTZ) seizure model, behavioral analysis; assay type: in vivo, zebrafish (Danio rerio); settings: MTC/2; last 5 min time interval
# Experimental: Experiments were performed as [Add references please: Copmans (2018), ACS chemical neuroscience; Copmans et al. (2018) Neurochem. Int. 112, 124-133; Afrikanova et al. (2013) PLoS One 8, e54166; Orellana-Paucar et al. (2012) Epilepsy Behav 24, 14-22]. In brief, a single 7 dpf larva was placed in each well of a 96-well plate and treated with either VHC (1% DMSO) or test compound in a 100 μl volume. Larvae were incubated in dark for 2 hours at 28° C., whereafter 100 μl of either VHC (embryo medium) or 40 mM PTZ (20 mM working concentration) was added to each well. Next, within 5 minutes the 96-well plate was placed in an automated tracking device (ZebraBox Viewpoint, France) and larval behavior was video recorded for 30 minutes. The complete procedure was performed in dark conditions using infrared light. Total locomotor activity was recorded by ZebraLab software (Viewpoint, France) and expressed in actinteg units, which is the sum of pixel changes detected during the defined time interval (5 minutes). Larval behavior was depicted as mean actinteg units per 5 minutes in the 30 minute recording period and over consecutive time intervals. Data are expressed as mean±SD for single experiments with regards to screening, and as mean±SEM for single experiments and for independent experiments of which the means or data are pooled. […]
# NMRI mice = assay: Mouse 6-Hz (44 mA) psychomotor seizure model; assay type: in vivo; settings: 300 mg/kg i.p., 30 min before stimulation
# Experimental: Experiments were performed as described in Copmans et al. (2018) ACS chemical neuroscience. […] Mice were manually restrained and a drop of ocular anesthetic (0.5% lidocaine) was applied to the corneas before stimulation. Following electrical current stimulation, the mouse was released in a transparent cage for behavioral observation, which was video-recorded. […] In addition, facial and mouth jerking as well as head nodding were observed occasionally. Seizure durations were measured during the experiment by experienced researchers, familiar with the different seizure behaviors. In addition, seizure durations were determined by blinded video analysis to confirm or correct the initial observations. Data are expressed as mean±SD.
Compound,"antiseizure activity, significance level (zebrafish larvae)",protection against electrically-induced seizures (NMRI mice)
Cc1cc2ccc3c(c2cn1)OC(C(C)C)C3=O (centres unmarked) [TMC-120A],p≤0.05,
"CCCC(CCC)C(=O)O [valproate, reference compound]",,fully protected
